Test results reported in PubChem BioAssay AID504444 (National Center for Advancing Translational Sciences (NCATS), 2011).
Hit rate of the full screen: of about 360,000 compounds, about 7,500 (2.1%) were called active. Inconclusive means that the source gave no clear call. Such entries were picked first, then a sample of the others. Calls follow the shape of the dose curve; as a rule, active = well fitted inhibition curve with a large enough effect; inconclusive = small, poorly fitted or top-dose-only effect, or effect the other way; inactive = flat fitted curve, though single readings scatter. Potencies of inconclusive entries are doubtful fits and often do not repeat.

Experiment: Nrf2 qHTS screen for inhibitors; also: nearly all actives have a fitted effect of over 60% in size
Details: A549 ARE-Fluc reporter, luciferase luminescence, 18-24 h; activity change, negative = inhibition: at 46 µM (top of the series)
Procedure, shortened: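 Concentration-response testing used A549 ARE_Fluc cells at 5000 cells/well. Following an 18-24 h compound incubation, viability was read by fluorescence (Ex 405/Em 525) and luciferase output by luminescence.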
% is scaled to controls: 0 for no effect and ±100 for the full control effect; potency is read from the fitted curve at half-maximal effect.

SMILES | Potency | activity change, negative = inhibition
Cc1ccccc1NC(=S)NCc1ccc2c(c1)OCO2 | inconclusive: 2.59 µM [activator, single point] | 
CC(=O)N1CCc2c(sc3c2c(=O)n(-c2ccc(C)cc2)c(=O)n3Cc2ccccc2C)C1 |  | inactive: -9.61%
CCOC(=O)N1CCN(c2nc3ccccc3n3cnnc23)CC1 |  | inactive: -14.9%
COc1ccccc1NS(=O)(=O)c1cc(NC(=O)C(C)C)ccc1N1CCCCC1 | inconclusive: 16.4 µM [falling, partial curve] | 
Fc1ccccc1CNCCC(Cc1ccccc1)c1ccc2c(c1)OCO2 (configuration not stated) | inconclusive: 23.1 µM [activator, partial curve, poor fit] | 
C=CCSc1nccc(-c2nn(-c3ccc(C)cc3)ccc2=O)n1 |  | inactive: -7.57%
Cc1c(Cl)cccc1NC(=O)Cn1c(=O)n(Cc2nc(-c3ccccc3)no2)c(=O)c2cc3c(cc21)OCO3 | inconclusive: 14.6 µM [activator, partial curve] | 
CCOC(=O)c1c(C)oc2c1c(C=NC1CCS(=O)(=O)C1)c(O)c1ccccc12 (configuration not stated) |  | inactive: -8.83%
O=C(N/C=N/OCc1ccc(Cl)cc1Cl)NOCc1ncc(C(F)(F)F)cc1Cl | inconclusive: 16.4 µM [falling, partial curve, poor fit] | 
OC(c1ccc(F)cc1)(C1CCCCC1)C(CN1CCOCC1)c1ccccc1 (configuration not stated) | inconclusive: 25.9 µM [falling, single point] | 
COc1ccc(C(Nc2ccccn2)c2oc(CO)cc(=O)c2O)cc1 (configuration not stated) |  | inactive: 6.82%
C[C@H]1CN([C@@H](C)CO)C(=O)c2cccc(NC(=O)c3ccc(-c4nccs4)cc3)c2O[C@@H]1CN(C)C(=O)Nc1cccc2ccccc12 |  | inactive: -11.2%
S=C(NCc1cccnc1)Nc1ccc(Cl)cc1Cl | inconclusive: 20.6 µM [falling, single point] | 
CN1CCN(c2ccc(NC(=O)COc3ccc4ccccc4c3)cc2)CC1 | inconclusive: 20.6 µM [activator, partial curve, poor fit] | 
Cc1ccccc1C(=O)NCc1ccncc1 | inconclusive: 29.1 µM [activator, single point] | 
CCOC(=O)C1=C(CN2CCc3ccccc32)NC(=O)NC1c1ccc(Cl)cc1 (configuration not stated) | active: 16.4 µM | 
O=C1COc2ccc(C(=O)CCl)cc2N1 | inconclusive: 0.0651 µM [falling, full curve, poor fit] | 
CC(=O)N(C)C1(c2nnnn2CCOC(=O)Nc2cccc3ccccc23)CCCC1 | inconclusive: 29.1 µM [activator, single point] | 
O=C(NCCc1ccccn1)c1ccc2nc(Cc3ccccc3F)oc2c1 | inconclusive: 23.1 µM [activator, partial curve] | 
CC(C)CNC(=O)c1cc(-c2ccc(Cl)c(Cl)c2)on1 | inconclusive: 2.31 µM [activator, full curve] | 
CCCC(C)NC(=S)NC(=O)c1cc(S(=O)(=O)N2CCOCC2)ccc1C (configuration not stated) | inconclusive: 29.1 µM [falling, single point] | 
O=S(=O)(c1ccccc1)c1nnn2c1nc(NC1CCN(Cc3ccccc3)CC1)c1cc(Cl)ccc12 | active: 6.51 µM | 

SMILES | Potency | activity change, negative = inhibition
O=C(Cn1cnc2ccccc2c1=O)Nc1ccc(N2CCOCC2)cc1 | inconclusive: 1.64 µM [activator, partial curve, poor fit] | 
Cc1nc2cc(NC(=O)c3ccc(S(=O)(=O)N(C)c4ccccc4)cc3)ccc2o1 | active: 8.2 µM | 
COc1ccc(C(=O)Nc2ccccc2C(=O)NCc2cccnc2)cc1OC |  | inactive: -11.5%
C#CCNC(=O)/C=C/c1ccc(OC)cc1 | inconclusive: 5.8 µM [activator, partial curve, poor fit] | 
Cc1cc(Cl)ccc1OCc1nc(-c2ccc(O)cc2)n[nH]1 | inconclusive: 18.4 µM [falling, partial curve] | 
CCOc1ccccc1-c1ccc(C(=O)NCc2ccccc2)o1 | inconclusive: 10.3 µM [falling, partial curve, poor fit] | 
O=C(NC1CCCCC1)C(c1ccc2ncccc2c1)N(Cc1ccc(F)cc1)C(=O)c1cccs1 (configuration not stated) | inconclusive: 25.9 µM [falling, single point] | 
COc1ccccc1-c1sc2cc3c(cc2c1C#Cc1ccccn1)OCO3 | inconclusive: 1.16 µM [activator, full curve] | 
CCC(=O)N1CCc2cc(S(=O)(=O)NC(C(=O)NCc3ccc(C)cc3)C(C)C)ccc21 (configuration not stated) | inconclusive: 7.31 µM [falling, partial curve, poor fit] | 
CCCOc1ccc(CNC(=O)c2[nH]c3cc(OC)ccc3c2Sc2ccccc2)cc1 | inconclusive: 29.1 µM [falling, single point] | 
O=C(COC(=O)c1cn(-c2ccccc2)nc1-c1ccc(F)cc1)Nc1ncc(Cl)cc1Cl | inconclusive: 2.06 µM [activator, full curve, poor fit] | 
COc1ccc(C(=O)C(OC(=O)CNC(=O)c2ccco2)c2ccccc2)cc1 (configuration not stated) |  | inactive: 1.8%
CCN(CC)c1ccc(CNc2nc3ccccc3n2C(C)C)cc1 | inconclusive: 16.4 µM [falling, partial curve] | 
CN(Cc1ccccc1)C(=O)c1ccc(NC(=O)Cc2ccc(NC(=O)C3CCN(C(=O)C4CCCC4)CC3)cc2)cc1 | inconclusive: 23.1 µM [falling, single point] | 
COc1ccc(/C=N/OCC(=O)N=Nc2c(O)[nH]c3ccc(Br)cc23)cc1OC | inconclusive: 29.1 µM [activator, single point] | 
COc1ccccc1CCNC(=O)C(C)Sc1nc(-c2ccccc2)cc(C(F)(F)F)n1 (configuration not stated) |  | inactive: -18.1%
COc1ccc(C(=O)Nc2nc(-c3nnn(-c4ccc(C(C)C)cc4)c3C)ns2)cc1 |  | inactive: 13.7%
O=C(NCC1OCCc2ccccc21)c1cc(COc2c(F)cccc2F)on1 (configuration not stated) | inconclusive: 9.2 µM [activator, partial curve] | 
COc1ccc(N=Cc2c(O)c3ccccc3oc2=O)cc1 | inconclusive: 20.6 µM [falling, partial curve, poor fit] | 
COc1ccccc1NC(=O)COc1ccccc1 | inconclusive: 29.1 µM [activator, single point] | 
CCCCNC(=O)/C(C#N)=C/c1ccc2c(c1)OCCO2 |  | inactive: -7%
Cc1nc2oc3ccc(Cl)cc3c(=O)c2cc1C(=O)O | inconclusive: 8.2 µM [activator, partial curve] | 
CCOC(=O)c1ccccc1N=N/C(C(C)=O)=C(/C)O |  | inactive: 14.3%

SMILES | Potency | activity change, negative = inhibition
Cc1cccc(S(=O)(=O)c2c(N)n(Cc3ccco3)c3nc4ccccc4nc23)c1 | inconclusive: 16.4 µM [falling, single point] | 
CC(C)(C)c1ccc(N/N=C(\C#N)S(=O)(=O)C(C)(C)C)cc1 | inconclusive: 16.4 µM [falling, single point] | 
Cc1ccc(Cl)cc1NC(=O)CN1C(=O)CCc2ccccc21 | inconclusive: 8.2 µM [falling, single point] | 
COc1ccc(C)cc1S(=O)(=O)Nc1ccc2c(c1)N(C(C)=O)CCC2 | inconclusive: 8.2 µM [falling, full curve, poor fit] | 
COc1ccc(C)cc1N(C)C(=O)CCc1nc(-c2ccccc2F)no1 | inconclusive: 13 µM [falling, partial curve] | 
COc1ccc(-n2c(-c3ccc(Br)cc3)c[n+]3c2CCc2ccccc2-3)cc1 | active: 8.2 µM | 
Cc1cccc(CSc2ccc(-c3ccco3)nn2)c1 | inconclusive: 2.91 µM [activator, full curve, poor fit] | 
Nc1nc(-c2ccc(Oc3ccccc3)cc2)cs1 |  | inactive: 26.5%
COc1ccc(CCNC(=O)c2c(C)oc3ncn(C)c(=O)c23)c(OC)c1 | inconclusive: 13 µM [activator, partial curve] | 
CCOc1cc(/C=N/NC(=O)c2ccccn2)ccc1OC(=O)c1cccs1 | inconclusive: 10.3 µM [activator, partial curve] | 
Cc1ccc(C(=O)C2CCN(CC(=O)Nc3ccccc3C)CC2)cc1 | inconclusive: 25.9 µM [falling, single point] | 
O=C(Nc1ccc(N2CCCC2)cc1)C(Cl)c1ccccc1 (configuration not stated) | inconclusive: 1.84 µM [activator, full curve] | 
CC1OC1c1ccc(-c2ccc(C3OC3C)cc2)cc1 (configuration not stated) | inconclusive: 29.1 µM [activator, single point] | 
COc1cc(OC)c(NC(=O)c2ccc(F)cc2)cc1Cl | inconclusive: 0.651 µM [activator, full curve, poor fit] | 
COc1cccc2c1OCC(C(=O)NCc1ccc(Cl)cc1Cl)=C2 | inconclusive: 32.6 µM [falling, single point] | 
CN(C)CCSc1nc(-c2ccccc2)nc2c1CCCC2 |  | inactive: -4.59%
Cc1ccc2[nH]c(=O)c3cc(C(=O)NCCCN4CCC(C)CC4)sc3c2c1 |  | inactive: 10.1%
COc1cc(/C=N/NC(=O)C(=O)/C=C2\NC3(CCCC3)Cc3ccccc32)ccc1O |  | inactive: -19.3%
O=C(COc1ccc(F)cc1)Nc1ccc2c(c1)OCCO2 | inconclusive: 0.411 µM [activator, full curve] | 
O=C1N/C(=N\N=C\c2ccco2)SC1Cc1ccccc1[N+](=O)[O-] (configuration not stated) |  | inactive: -8.38%
COc1ccc2cc(/C=N/NC(=O)c3ccc(CN(c4cccc(Cl)c4Cl)S(C)(=O)=O)cc3)c(Cl)nc2c1 | inconclusive: 3.26 µM [falling, full curve, poor fit] | 

Reprinted at random: 3 compounds from above, in no set order.
SMILES | Potency | activity change, negative = inhibition
COc1ccc(N=Cc2c(O)c3ccccc3oc2=O)cc1 | inconclusive: 20.6 µM [falling, partial curve, poor fit] | 
C[C@H]1CN([C@@H](C)CO)C(=O)c2cccc(NC(=O)c3ccc(-c4nccs4)cc3)c2O[C@@H]1CN(C)C(=O)Nc1cccc2ccccc12 |  | inactive: -11.2%
O=C(N/C=N/OCc1ccc(Cl)cc1Cl)NOCc1ncc(C(F)(F)F)cc1Cl | inconclusive: 16.4 µM [falling, partial curve, poor fit] | 
